This passage reports cell number change and AC50 results from PubChem BioAssay AID2685 (National Center for Advancing Translational Sciences (NCATS), 2010).

The assay is described as follows: qHTS Assay for Lipid Storage Modulators in Drosophila S3 Cells.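 For cell number change: cells counted by Cell Tracker Red CMTPX staining in the red channel.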 To be noted: BODIPY lipid droplet fluorescence, 18-24 h; for cell number change: measured here: cell count max response, cells fed with added oleic acid. In outline: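 Laser-scanning cytometry quantifies lipid droplet accumulation (500–530 nm total intensity; droplet/cell object ratio) in oleic acid-fed (400 uM added) Drosophila S3 cells treated with a concentration series. 20 uM Triacsin C defined 100% inhibition.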

Setting [1] is: measured here: cell number channel AC50, cells fed with added oleic acid.
The mark [2] stands for this setting: measured here: lipid fluorescence (Fed channel) AC50, cells fed with added oleic acid.

The AC50 is the concentration giving half of the maximal activity seen. A high value points to activity only at high concentration.

The other results are listed elsewhere or left out. Shown are side measurements of this screen, not its main read-out; they come without a call. Most of these compounds were active or inconclusive in the main read-out, so they are no random draw. Potencies come from curve fits of mixed quality, noted in brackets.

For the compound `CCOC(=O)C[N+]1(C)CCN(C(C)=O)CC1`, the cell number change is -17.4%. Besides, the AC50 under setting [1] was 2.91 µM [falling, single point].

With `CN(C)C1=NCCN1CC1CCCC1`, the cell number change was -33.5%. Further, the AC50 under setting [1] was 0.58 µM [falling, full curve]. Moreover, the half-maximal activity concentration (AC50) under setting [2] is 0.651 µM [falling, full curve].

For the compound `Cc1ccc(CCNC(=O)CNC(=S)N(Cc2ccccc2)Cc2cccnc2)cc1`, the cell number change is -4.42%. Besides, the AC50 under setting [1] was 2.06 µM [falling, single point].

`Cc1cccc(N2CCN(Cc3nc(-c4cccc(Oc5ccccc5)c4)oc3C)CC2)n1`: the cell number change is -25.1%. In addition, the AC50 under setting [2] was 1.46 µM [falling, partial curve].

With `CNC(=S)N/N=C/c1c(C)nn(-c2cccc(Cl)c2)c1Cl`, the cell number change was -23.7%. In addition, the AC50 under setting [2] is 20.6 µM [falling, single point].

Turning to `CCC(C)(C)NC(=O)C(c1ccc(OC)cc1)N(C(=O)CCC(=O)Nc1cc(C)on1)C(C)(C)C` (stereo unspecified), the cell number change amounted to 5.22%. Under setting [2], the AC50 was 6.51 µM [rising, single point].

Turning to `COc1ccccc1-c1cc(C(F)(F)F)nc(S(=O)(=O)CCCC(=O)NCc2ccc(F)cc2)n1`, the cell number change was -48.8%. Besides, the AC50 under setting [1] was 7.31 µM [falling, partial curve].

In the case of `O=C(Nc1ccc2ccccc2n1)c1ccccc1Br`, the cell number change is -24.6%. Besides, under setting [2], the AC50 was 23.1 µM [rising, single point].

As for `Cc1nn(Cc2cccc(C(=O)Nn3cc([N+](=O)[O-])cn3)c2)c(C)c1[N+](=O)[O-]`, the cell number change came out at 33.5%. In addition, the AC50 under setting [1] is 9.2 µM [rising, partial curve].

As for `Cc1nn(Cc2ccccc2Cl)c(C)c1NC(=O)c1ccn(C)n1`, the cell number change is 4.63%. Also, under setting [2], the AC50 is 0.092 µM [rising, full curve, poor fit].

Turning to `CCc1ccc(NC(=O)Cn2cnc([N+](=O)[O-])c2)cc1`, the cell number change stood at 14.6%. Also, the AC50 under setting [2] is 29.1 µM [rising, single point].

As to `CCOc1ccccc1NC(=O)CCN1CCN(S(=O)(=O)c2ccc(OC)cc2)CC1`, the cell number change was 88.9%. Besides, the AC50 under setting [1] was 16.4 µM [rising, single point].

For the compound `Cc1ccc(C(=O)OCC(=O)c2c[nH]c3ccccc23)cc1`, the cell number change is -5.68%. Also, the AC50 under setting [1] is 4.61 µM [rising, single point]. Moreover, the AC50 under setting [2] is 6.51 µM [rising, single point].

Regarding `COc1ccc(Cn2nnc3c(=O)[nH]c(C4CCN(S(=O)(=O)c5ccc(C)cc5)CC4)nc32)cc1`, the AC50 under setting [2] is 0.206 µM [falling, full curve].

With `Cc1cc(C)n2nc(SCc3cccc(S(=O)(=O)N(C)C)c3)nc2n1`, the cell number change is -0.704%. In addition, the concentration at half-maximal activity (AC50) under setting [2] is 0.58 µM [rising, single point].

Take `COc1ccc(CCOC(=O)c2ccc(N)c([N+](=O)[O-])c2)cc1`: the cell number change is -22.3%.

Take `CC1=CC(c2ccccc2)n2nnnc2N1` (stereo unspecified): the cell number change was -9.38%. For the same compound, the AC50 under setting [2] was 0.00461 µM [falling, full curve, poor fit].

Take `COc1cc(=O)n(C)c2c(OCC(O)C(C)(C)O)cccc12` (stereo unspecified): the cell number change stood at 50%. The AC50 under setting [1] was 20.6 µM [rising, single point]. Besides, the concentration at half-maximal activity (AC50) under setting [2] was 8.2 µM [rising, partial curve].

As to `NC(=O)CC(NC(=O)c1ccccc1)c1ccc(NC2CCCCC2)c([N+](=O)[O-])c1` (stereo unspecified), the cell number change is -3.18%. The AC50 under setting [2] was 29.1 µM [falling, single point].

Regarding `CC(=O)c1ccc(OCCCC(=O)Nc2cc(S(=O)(=O)N(C)C)ccc2C)cc1`, the cell number change was -19.5%. Under setting [2], the AC50 was 32.6 µM [falling, single point].

Take `CC(Oc1ccccc1)C(=O)Nc1ccc(S(=O)(=O)Nc2nccs2)cc1` (stereo unspecified): the cell number change was -22.2%.

For the compound `O=C(NCc1cn(-c2ccccc2)nc1-c1ccc(F)cc1)c1cccc([N+](=O)[O-])c1`, the cell number change was -6.44%. Further, the AC50 under setting [2] is 29.1 µM [falling, single point].

As to `S=C(Nc1ccc(Br)cc1Cl)Nn1cnnc1`, the cell number change is -40.8%.

Turning to `CC1CCCCC1NC(=O)CCNC(=O)N1CC(=O)Nc2ccccc21` (stereo unspecified), the cell number change is 17.9%. Besides, the AC50 under setting [1] is 6.51 µM [rising, single point]. For the same compound, the AC50 under setting [2] was 18.4 µM [falling, single point].

In the case of `O=S1(=O)[C@H]2C[C@@H]3C=C[C@@]2(CN1Cc1ccccc1F)O3`, the cell number change stood at 9.28%. Further, under setting [2], the AC50 is 5.8 µM [rising, full curve].

Consider `Oc1[nH]c2ccccc2c1N=Nc1ccccc1F`, for which the cell number change is 1.11%.

With `CCOC(=O)c1ccc(N2CCN(c3ccccc3F)CC2)c(NC(=O)Nc2cccc(OC)c2)c1`, the cell number change was -0.74%. Also, the AC50 under setting [2] is 0.231 µM [rising, partial curve].

On to `CCOC(=O)/C=c1\s/c(=C\c2sccc2C)c(=O)n1CC(=O)NCc1ccc(C)cc1`, for which the cell number change is 36.9%. Moreover, the AC50 under setting [1] was 13 µM [rising, single point].

As to `CCOC(=O)c1sc(NC(=O)c2cc(S(=O)(=O)N3CCOCC3)ccc2C)nc1C`, the cell number change is 4.12%. In addition, the AC50 under setting [2] is 13 µM [rising, partial curve, poor fit].

As to `O=[N+]([O-])c1ccc(NC2CCN(Cc3ccccc3)CC2)c([N+](=O)[O-])c1`, the cell number change is -16.3%. For the same compound, the AC50 under setting [2] was 23.1 µM [falling, single point].

`CC(C)(C)NC(=O)CCCSc1nc2ccccc2s1`: the cell number change is -23.8%. Under setting [2], the AC50 was 29.1 µM [falling, single point].

In the case of `CSc1nc(N2CCOCC2)nc2ccc(C)cc12`, the cell number change is -36.3%. Moreover, under setting [1], the concentration at half-maximal activity (AC50) is 20.6 µM [falling, single point]. Under setting [2], the AC50 is 8.2 µM [falling, single point].

As for `Cc1ccc(-c2csc3ncnc(Sc4nnc(CN5CCCCCC5=O)o4)c23)cc1`, the cell number change is -21.8%. Further, under setting [2], the AC50 was 29.1 µM [falling, single point].

Take `CCOc1ccc(S(=O)(=O)NCCC(=O)N(C)Cc2ccc(C)o2)cc1`: the cell number change amounted to 31.7%. For the same compound, the AC50 under setting [1] was 4.11 µM [rising, full curve]. Further, the AC50 under setting [2] was 4.61 µM [rising, full curve].

Regarding `O=C(c1ccc2c(c1)OCCO2)N1CCN(c2ccc([N+](=O)[O-])cc2)CC1`, the cell number change was found to be 43.6%. In addition, the AC50 under setting [1] is 16.4 µM [rising, single point]. In addition, under setting [2], the AC50 is 16.4 µM [rising, single point].

As for `CCCCN1C(=O)C(=O)N(CC(=O)Nc2ccc(C(N)=O)cc2)C1=O`, the cell number change came out at 17.5%. For the same compound, the AC50 under setting [1] is 3.26 µM [falling, single point]. Also, the AC50 under setting [2] is 1.64 µM [falling, partial curve].

With `OCCN1CCN(c2ncnc3scc(-c4ccc(F)cc4)c23)CC1`, the cell number change was -8.24%. Also, under setting [2], the AC50 was 18.4 µM [rising, single point].

As for `COc1cc(OC)cc(-c2nc(-c3cc4cc(C)ccc4nc3OC)no2)c1`, the cell number change is -16.2%. The concentration at half-maximal activity (AC50) under setting [2] is 32.6 µM [falling, single point].

For `Cc1ccc(C2C(C(=O)O)c3ccccc3C(=O)N2C)o1` (stereo unspecified), the cell number change is -0.965%. Moreover, the AC50 under setting [2] was 29.1 µM [falling, single point].

As to `COc1ccc(NC2=NCCCCC2)cc1`, the cell number change came out at 18.8%. The AC50 under setting [2] was 29.1 µM [rising, single point].

Turning to `Cc1cc(NC(=O)CCC(=O)N(Cc2ccccc2)C(C(=O)NC2CCCC2)c2ccco2)no1` (stereo unspecified), the cell number change is -7.89%. Further, the AC50 under setting [2] was 5.62 µM [falling, single point].

With `Cc1ccc(NC(=O)COC(=O)C(NS(=O)(=O)c2ccc(Cl)cc2)C(C)O)cc1` (stereo unspecified), the cell number change was found to be 14.5%.

For the compound `C/C(=N\NC(=O)CN(c1ccc(C)cc1)S(C)(=O)=O)c1cccs1`, the cell number change stood at 18.9%. For the same compound, the concentration at half-maximal activity (AC50) under setting [2] is 8.2 µM [rising, partial curve, poor fit].

`O=C(Nc1cnn(Cc2ccc(F)cc2)c1)c1cnn2c(C(F)F)cc(-c3ccccc3)nc12`: the cell number change is -35.3%. Moreover, under setting [1], the AC50 is 23.1 µM [falling, single point]. In addition, the AC50 under setting [2] was 20.6 µM [falling, single point].

With `COc1cccc(/C(O)=C2/C(=O)C(=O)N(CCCN(C)C)C2c2cccc(Cl)c2)c1` (stereo unspecified), the cell number change was 2.51%. Also, the AC50 under setting [2] was 29.1 µM [rising, single point].

For the compound `CCO[C@H]1OC(C(=O)N2CCN(Cc3ccc4c(c3)OCO4)CC2)=C[C@@H](c2ccc(C(F)(F)F)cc2)[C@@H]1CCCO`, the cell number change was -31.9%. Under setting [1], the AC50 is 18.4 µM [falling, single point].

For `NS(=O)(=O)c1ccc(CCNC(=O)c2cc(-c3ccccn3)nc3ccc(Br)cc23)cc1`, the cell number change was -3.74%. Further, the AC50 under setting [2] was 0.00461 µM [rising, full curve, poor fit].

In the case of `COc1ccc(OC)c(CNC(=O)CCC(=O)N2Cc3cccc(OC)c3Oc3ncccc32)c1`, the cell number change was -4.78%. Besides, under setting [2], the AC50 is 29.1 µM [rising, single point].

`Cc1ccc(-n2c(SCC(N)=O)nnc2-c2ccc(S(=O)(=O)N3CCCCC3)cc2)c(C)c1`: the cell number change is 34.3%. Further, the AC50 under setting [1] is 5.8 µM [rising, full curve, poor fit]. Moreover, the AC50 under setting [2] was 6.51 µM [rising, partial curve, poor fit].

Take `O=C(c1cccc(Cl)c1)N1CCC(C(=O)N2CCN(Cc3ccccc3)CC2)CC1`: the cell number change is -30.2%. Besides, the AC50 under setting [1] was 16.4 µM [falling, single point].

In the case of `O=c1cc(CO)oc(CN2CCC(Cc3ccccc3)CC2)c1O`, the cell number change was 0.207%. Moreover, the AC50 under setting [2] was 0.326 µM [rising, partial curve].

Take `O=C(NC1(C(F)(F)F)NC(=O)N(c2ccc(F)cc2)C1=O)c1cccs1` (stereo unspecified): the cell number change was determined as 38%. Moreover, the concentration at half-maximal activity (AC50) under setting [1] is 32.6 µM [rising, single point].

Consider `CCc1nnc(NC(=O)c2ccc(OC)c(S(=O)(=O)N3CCCC3)c2)s1`, for which the cell number change came to 11.9%.

As for `CCOc1ccc(OCC)c(NC(=O)C2CCN(S(=O)(=O)c3ccc4c(c3)CC(C)N4C(C)=O)CC2)c1` (stereo unspecified), the cell number change was -10.5%. The AC50 under setting [2] was 18.4 µM [rising, single point].

In the case of `COc1ccc(CCNc2ccc(C(CC(N)=O)NC(=O)c3cc(OC)ccc3OC)cc2[N+](=O)[O-])cc1` (stereo unspecified), the cell number change amounted to 16.8%. Moreover, the AC50 under setting [1] was 0.00517 µM [rising, full curve, poor fit].

As to `Cc1ccc(C(=O)OCC(=O)N2CC(=O)Nc3ccccc32)s1`, the AC50 under setting [1] is 4.11 µM [falling, single point] and the AC50 under setting [2] is 0.00461 µM [falling, full curve, poor fit].

As for `O=C(O)c1cnc(-c2ccccc2)nc1Sc1cccc(Cl)c1`, the half-maximal activity concentration (AC50) under setting [2] was 29.1 µM [rising, single point].
